From PubChem BioAssay AID463205 (Broad Institute, 2010)
The campaign covered roughly 2,400 compounds. About 20 (0.8%) were called active.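 Rule for the calls: active = AC50 no more than ten times the highest tested concentration, or full inhibition at every dose giving a flat fit (cut at about 30 µM in these data); inconclusive = flat fit with activity between 30% and 70%, or poor-quality invalid fit; inactive = AC50 more than ten times the top tested dose.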 The list shows a part of the results.

assay: inhibitors of ADP-Glo detection reagents, dose response, artefact control for GSK-3a inhibitor project, biochemical, luminescence, cell-free, homogeneous (AID 463205); details: 5 uM ADP;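 note: kinase-free counter-screen against the ADP-Glo detection reagents only; potency is for inhibitors that reduce the luminescence signal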

Row | SMILES | AC50
1 | O=c1[nH]c(O)c(C=NC2CCN(Cc3ccccc3)CC2)c(=O)[nH]1 | inactive: > 30 µM
2 | ClCCN1CCN(c2ccnc3cc(Cl)ccc23)CC1 | inactive: > 30 µM
3 | O=c1[nH]c(=O)n(Cc2ccco2)c(O)c1/C=N/N1CCCCC1 | inactive: > 30 µM
4 | O=[N+]([O-])c1ccc(NCCCN2CCOCC2)nc1 | inactive: > 30 µM
5 | COc1ccc(-n2c(O)c(C=NCCCn3ccnc3)c(=O)[nH]c2=O)cc1 | inactive: > 30 µM
6 | CCN1CCN(Cc2cc(OC)c(OC)cc2[N+](=O)[O-])CC1 | inactive: > 30 µM
7 | Cc1nc2cc(F)ccc2n1C1CCN(Cc2nnnn2CCc2ccccc2)CC1 | inactive: > 30 µM
8 | O=C1/C(=C/c2cccc([N+](=O)[O-])c2)N2CCC1CC2 | inactive: > 30 µM
9 | COc1cc2c(cc1OC)-c1c3c(cc4c1[C@@H](C2)N(C)CC4)OCO3 | inactive: > 30 µM
10 | C=CCn1c(O)c(C=NC2CCN(Cc3ccccc3)CC2)c(=O)[nH]c1=O | inactive: > 30 µM
11 | CN1/C(=C\C=C2C(=O)NC(=O)NC2=O)C(C)(C)c2ccccc21 | inactive: > 30 µM
12 | Cc1cccc(NC(=O)CSc2nnc([C@@H](N)Cc3c[nH]c4ccccc34)o2)c1C | inactive: > 30 µM
13 | CCOC(=O)N1CCC(NC(=O)CCc2nc(C3=CCN(C)CC3)no2)CC1 | inactive: > 30 µM
14 | CN1CCc2nc3sc(C#N)c(N)c3c(-c3cccs3)c2C1 | inactive: > 30 µM
15 | CCOc1ccccc1-n1c(O)c(C=NCCCn2ccnc2)c(=O)[nH]c1=O | inactive: > 30 µM
16 | O=c1[nH]c(=S)n(C2CCCCC2)c(O)c1/C=N/N1CCOCC1 | inactive: > 30 µM
17 | O=c1[nH]c(=O)n(C2CCCCCC2)c(O)c1C=NC1CCN(Cc2ccccc2)CC1 | inactive: > 30 µM
18 | C=CCn1c(O)c(/C(C)=N/N2CCCCCC2)c(=O)[nH]c1=O | inactive: > 30 µM
19 | CCN1C(=O)C(=C/C=C/c2ccco2)C(=O)N(CC)C1=S | inactive: > 30 µM
20 | CN1CCC2(CC1)C(C#N)=C(N)NC(S)=C2C#N | inactive: > 30 µM

Row | SMILES | AC50
21 | O=[N+]([O-])c1ccc(NCCCN2CCOCC2)c2ncccc12 | inactive: > 30 µM
22 | Cc1ccc2c(c1N)C(=O)c1ccccc1C2=O | inactive: > 30 µM
23 | O=c1[nH]c(=O)n(CCc2ccccc2)c(O)c1C=NCCCn1ccnc1 | inactive: > 30 µM
24 | COc1cc(O)cc2c1C(=O)OC(C)CCCC(=O)CCC/C=C\2 (stereo not drawn) | inactive: > 30 µM
25 | NC(=O)CSc1nnc([C@@H](N)Cc2c[nH]c3ccccc23)o1 | inactive: > 30 µM
26 | CN(C)C(=O)Oc1ccc([N+](=O)[O-])cc1 | inactive: > 30 µM
27 | C[C@H]1CCCC(=O)CCCCCc2cc(O)cc(O)c2C(=O)O1 | inactive: > 30 µM
28 | CCC(=NCCCn1ccnc1)c1c(O)n(Cc2ccccc2)c(=O)[nH]c1=O | inactive: > 30 µM
29 | CN(C(=O)Oc1ccc([N+](=O)[O-])cc1)c1ccccc1 | inactive: > 30 µM
30 | C[C@H]1CCC[C@@H](O)CCC/C=C/c2cc(O)cc(O)c2C(=O)O1 | inactive: > 30 µM
31 | CCC(=NCc1cccnc1)c1c(O)n(C2CCCCC2)c(=O)[nH]c1=O | inactive: > 30 µM
32 | CCn1nc(-c2ccccc2)nc2c(=O)n(C)c(=O)nc1-2 | inactive: > 30 µM
33 | CC(=NCCCn1ccnc1)c1c(O)n(C2CCCCC2)c(=O)[nH]c1=O | inactive: > 30 µM
34 | CCOc1cc(-c2nc3c(C)cccn3c2NCC2CCCO2)ccc1O (stereo not drawn) | inactive: > 30 µM
35 | Cc1ccc2c(c1)C(c1ccccc1)=NCC(=O)N2 | inactive: > 30 µM
36 | CCSc1nnc([C@@H](N)Cc2c[nH]c3ccccc23)o1 | inactive: > 30 µM
37 | CCCCCCN=C(C)c1c(O)n(CCCC)c(=O)[nH]c1=O | inactive: > 30 µM
38 | O=C1CN=C(c2ccccc2)c2cc(Br)ccc2N1 | inactive: > 30 µM
39 | O=C(NCCCn1ccnc1)C(Cl)(Cl)Cl | inactive: > 30 µM
40 | Cc1cccc(C)c1OC(=O)Cc1ccccc1 | inactive: > 30 µM

Row | SMILES | AC50
41 | CC(=NCCCn1ccnc1)c1c(O)n(-c2ccccc2)c(=O)[nH]c1=O | inactive: > 30 µM
42 | COc1ccc(S(=O)(=O)NCc2ccc(C(=O)N3CCC4(CC3)OCCO4)cc2)cc1 | inactive: > 30 µM
43 | C=CCNC(=O)c1c(N)n(Cc2ccco2)c2nc3ccccc3nc12 | inactive: > 30 µM
44 | CCN(CC)CCCN=C(C)c1c(O)n(C2CCCCC2)c(=O)[nH]c1=O | inactive: > 30 µM
45 | Cn1c(O)c(C=NCCc2c[nH]c3ccccc23)c(=O)n(C)c1=O | inactive: > 30 µM
46 | CCc1nnc(NC(=O)CCc2nc(C3=CCN(C)CC3)no2)s1 | inactive: > 30 µM
47 | CC(=NCCO)c1c(O)n(C2CCCCC2)c(=O)[nH]c1=O | inactive: > 30 µM
48 | CN(C)C(=O)Oc1cccc2c(OC(=O)N(C)C)cccc12 | inactive: > 30 µM
49 | CCc1ccccc1NC(=O)CSc1nnc([C@@H](N)Cc2c[nH]c3ccccc23)o1 | inactive: > 30 µM
50 | CCC(=NCCCN(CC)CC)c1c(O)n(C2CCCCC2)c(=O)[nH]c1=O | inactive: > 30 µM
51 | O=c1[nH]c(=O)n(Cc2ccccc2)c(O)c1C=NCCCn1ccnc1 | inactive: > 30 µM
52 | CCC(=NCCCn1ccnc1)c1c(O)n(-c2ccccc2)c(=O)[nH]c1=O | inactive: > 30 µM
53 | CC(=NCCCn1ccnc1)c1c(O)n(C)c(=O)n(C)c1=O | inactive: > 30 µM
54 | CCN(C(=O)CN1CC=C(c2ccccc2)CC1)c1c(N)n(Cc2ccccc2)c(=O)[nH]c1=O | inactive: > 30 µM
55 | C=C(C)CSc1nnc([C@@H](N)Cc2c[nH]c3ccccc23)o1 | inactive: > 30 µM
56 | Cc1cc(OCc2cc(C(=O)O)oc2C)c2c3c(c(=O)oc2c1)CCCC3 | inactive: > 30 µM
57 | CC(C)CN(C(=O)CN1CC=C(c2ccccc2)CC1)c1c(N)n(CC(C)C)c(=O)[nH]c1=O | inactive: > 30 µM
58 | O=c1[nH]c(=O)n(Cc2ccc(F)cc2)c(O)c1C=NCCCn1ccnc1 | inactive: > 30 µM

A draw from above in order of SMILES length, falling:
Row | SMILES | AC50
49 | CCc1ccccc1NC(=O)CSc1nnc([C@@H](N)Cc2c[nH]c3ccccc23)o1 | inactive: > 30 µM
44 | CCN(CC)CCCN=C(C)c1c(O)n(C2CCCCC2)c(=O)[nH]c1=O | inactive: > 30 µM
55 | C=C(C)CSc1nnc([C@@H](N)Cc2c[nH]c3ccccc23)o1 | inactive: > 30 µM
46 | CCc1nnc(NC(=O)CCc2nc(C3=CCN(C)CC3)no2)s1 | inactive: > 30 µM
